Results as given in patent US20120308482A1.
No constants are given. Whether binding was seen depends on the method and setting. Some entries that bind do so weakly or less than the wild type. Tags and fused reporters may be left off the sequences shown.

Protein sequences, listed by entry. Tags and fused reporters are not part of them. Lines headed by an entry give the natural chain unless they say otherwise; changes in a name come on top.
UniProt P48551: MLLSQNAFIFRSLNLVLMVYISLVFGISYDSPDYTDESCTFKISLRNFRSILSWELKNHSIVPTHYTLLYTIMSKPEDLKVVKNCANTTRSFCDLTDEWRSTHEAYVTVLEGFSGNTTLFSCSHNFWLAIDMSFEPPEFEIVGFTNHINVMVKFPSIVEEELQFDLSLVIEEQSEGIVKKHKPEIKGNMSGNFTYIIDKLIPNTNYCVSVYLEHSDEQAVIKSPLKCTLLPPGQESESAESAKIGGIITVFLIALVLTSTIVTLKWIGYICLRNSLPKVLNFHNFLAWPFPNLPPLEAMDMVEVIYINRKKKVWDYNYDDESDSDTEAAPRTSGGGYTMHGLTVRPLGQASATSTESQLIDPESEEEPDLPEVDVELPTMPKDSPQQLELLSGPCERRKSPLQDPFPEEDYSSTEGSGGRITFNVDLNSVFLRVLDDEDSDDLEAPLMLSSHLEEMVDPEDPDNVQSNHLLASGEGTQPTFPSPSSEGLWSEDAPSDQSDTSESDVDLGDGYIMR
UniProt P17181: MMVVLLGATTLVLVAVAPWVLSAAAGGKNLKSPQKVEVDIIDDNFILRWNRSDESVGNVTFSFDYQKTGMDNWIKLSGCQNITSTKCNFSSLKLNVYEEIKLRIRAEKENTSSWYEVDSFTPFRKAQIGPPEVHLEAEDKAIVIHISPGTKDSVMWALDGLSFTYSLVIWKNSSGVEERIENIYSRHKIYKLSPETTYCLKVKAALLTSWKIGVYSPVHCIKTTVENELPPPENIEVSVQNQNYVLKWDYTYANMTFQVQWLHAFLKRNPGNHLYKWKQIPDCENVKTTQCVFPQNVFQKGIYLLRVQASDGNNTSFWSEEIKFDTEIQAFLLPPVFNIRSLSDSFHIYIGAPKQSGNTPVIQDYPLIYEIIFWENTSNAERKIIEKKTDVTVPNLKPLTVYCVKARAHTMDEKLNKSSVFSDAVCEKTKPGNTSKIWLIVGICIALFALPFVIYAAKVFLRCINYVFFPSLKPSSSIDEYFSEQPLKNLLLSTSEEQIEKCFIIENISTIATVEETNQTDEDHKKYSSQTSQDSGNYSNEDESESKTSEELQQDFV

Biological target: human IFN receptor complex (human) (UniProt P48551+P17181)
Assay: inferred by the filing from the ISRE reporter gene assay on human HEK293 cells

binding: binds
B1: cyno IFNω protein (Macaca fascicularis interferon omega) with a C-terminal 6xHis tag (ligand)
chain: CDLPQNHGLLSRNTLVLLHQMRRISPFLCLKDRRDFRFPQEMVEGSQLQKAQVMSVLHEMLQQIFSLFHTEHSSAAWNTTLLDHLHTGLHRQLEHLETCLVQVMREGESAGAIRSPALTLRRYFQGIRVYLKEKKYSDCAWEVVRMEIMKSLFLSTNMQERLKSKDGDLGSSHHHHHH
